Source: PubChem BioAssay AID504467 (National Center for Advancing Translational Sciences (NCATS), 2011)
The campaign covered roughly 330,000 compounds. About 7,700 (2.3%) were called active. Inconclusive results, whose numbers are uncertain, are shown with a selection of clear calls. Calls come from the whole dose curve; as a rule, active = well fitted inhibition curve with a large enough effect; inconclusive = small, poorly fitted or top-dose-only effect, or effect the other way; inactive = flat fitted curve, though single readings scatter. Potencies of inconclusive entries are doubtful fits and often do not repeat.

Test: qHTS screen for small molecules that inhibit ELG1-dependent DNA repair in human embryonic kidney (HEK293T) cells expressing luciferase-tagged ELG1; note: nearly all actives have a fitted effect of over 55% in size
Settings: HEK293T ELG1-luciferase reporter, luminescence, 16 h, DNA damage induced by 5-fluorouridine; activity change, negative = inhibition: at 46.1 µM (top of the series)
Outline: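 Step one: seed 2,000 cells per well. Step two: pin-transfer compound or DMSO alongside 5-fluorouridine. Step three: incubate 16 hr, 37 °C, 5% CO2. Step four: add ONE-Glo, wait 30 min, read luminescence.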
% is set by controls: 0 for no effect and ±100 for the full control effect; potency is the fitted concentration of half-maximal effect.

SMILES | activity change, negative = inhibition | Potency
O=C(N/N=C/c1ccccn1)c1ccc(S(=O)(=O)N2CCCCCC2)cc1 | inconclusive: 18.9% [activator] | –
Cc1ccc(S(=O)(=O)N(C)c2ccc(C(=O)NCCc3ccccc3)cc2)cc1 | – | inconclusive: 18.3 µM [activator, single point]
O=C(c1ccccc1)N1CCCC(c2nc3c(nnn3Cc3ccccc3)c(=O)[nH]2)C1 (centres undefined) | – | inconclusive: 0.206 µM [inhibitor, partial curve, poor fit]
CCOc1cc(-c2c(C#N)c(N)nc3c2CCc2ccccc2-3)ccc1O | – | inactive
O=c1[nH]c(CSc2ccccn2)nc2c1cnn2-c1ccccc1 | – | inactive
Cc1ccc(NC(=S)NCc2cccs2)c(C)c1 | – | inactive
COc1ccc2c(c1)nc1n2CN(CC2CCCO2)CN1Cc1ccccc1 (centres undefined) | – | inconclusive: 11.6 µM [activator, partial curve]
Cc1cc(C(=O)COC(=O)c2n[nH]c3ccccc23)c(C)n1C | – | inconclusive: 1.46 µM [activator, full curve]
COC(=O)c1sccc1NC(=O)c1ccco1 | – | inactive
COc1ccccc1N(CC(=O)NCCSc1ccccc1)S(C)(=O)=O | – | inactive
COc1ccc(N2CCN(C(c3cccs3)c3nnnn3C3CCCC3)CC2)cc1 (centres undefined) | – | inactive
CCN(CC)S(=O)(=O)c1ccc2[nH]cc(C(=O)NCCc3ccccc3)c(=O)c2c1 | – | active: 5.8 µM
COc1ccc(C2CC(=O)C3=C(C2)Nc2ncnn2C3c2ccccc2C)cc1 (centres undefined) | – | inconclusive: 29.1 µM [inhibitor, single point]
CCC(=O)c1ccc(N2CCN(C(=O)c3ccccc3)CC2)c(F)c1 | – | inactive
CCN(CC)c1ccc(NC(=O)C2CCCN(S(=O)(=O)c3cccnc3)C2)c(C)c1 (centres undefined) | – | inconclusive: 18.4 µM [inhibitor, partial curve]
COc1cccc2cc(-c3nc(-c4cccs4)cs3)c(=O)oc12 | – | inconclusive: 13 µM [activator, partial curve]
Cc1noc(C)c1CSc1ccccc1C(=O)N1CCN(c2ccccc2)CC1 | – | inconclusive: 18.4 µM [inhibitor, partial curve, poor fit]
Cc1cccc(-c2nc(CN3CCCC(C(=O)NC4CCCCCC4)C3)c(C)o2)c1 (centres undefined) | – | inconclusive: 10 µM [inhibitor, partial curve]
O=C(NCC1CCCO1)c1cc2ccccc2nc1Cl (centres undefined) | – | inconclusive: 20.6 µM [activator, partial curve]
Cc1ccc(NC(=O)CCc2ccc(C)o2)c(Br)c1 | – | inconclusive: 18.3 µM [activator, single point]
Cc1ccc(C(=O)OCC(=O)NNC(=O)c2ccc([N+](=O)[O-])cc2)o1 | – | inactive
CC(C)CNc1nc(NC(C)(C)C)nc(Oc2ccc(=O)[nH]n2)n1 | – | inactive
CCC(C)NC(=O)CNC(=O)c1nn(-c2ccc(OC)cc2)c(=O)c2ccccc12 (centres undefined) | – | inactive
Cc1ccc2c(c1)S/C(=C\c1cccc[n+]1C)N2CCO | – | inconclusive: 14.6 µM [inhibitor, partial curve]
COCCNC(=O)c1cccc(Nc2nc(-c3ccccc3)c3cc(Cl)ccc3n2)c1 | – | active: 20.6 µM

SMILES | activity change, negative = inhibition | Potency
O=C(O)c1ccc2c(c1)C(=O)N(c1cccc(C(=O)/C=C/c3ccccc3)c1)C2=O | – | inconclusive: 25.9 µM [activator, single point]
CC1(C)OC(=O)N(c2ccccc2)C12C=Cc1cc(Br)ccc1O2 (centres undefined) | – | inconclusive: 2.91 µM [inhibitor, single point]
O=C(NCc1cccnc1)C1CC(=O)N(C2CCCCC2)C1 (centres undefined) | – | inactive
Cc1ccc(S(=O)(=O)N(C)C)cc1NC(=O)C1CCCC1 | – | inconclusive: 9.2 µM [activator, partial curve, poor fit]
O=C(COC(=O)c1ccccc1Br)NC1CCCC1 | – | inconclusive: 18.3 µM [activator, single point]
Cc1ccsc1CNCc1cc(Cl)ccc1O | – | inactive
Cc1nc2ccc(NS(=O)(=O)c3ccc(F)cc3)cc2s1 | – | inconclusive: 25.9 µM [inhibitor, single point]
CC1CCCC(NC(=O)c2cc(S(=O)(=O)N3CCCCC3)ccc2Cl)C1C (centres undefined) | – | inactive
O=C(CCNC(=O)c1ccc(Cl)cc1)Nc1ccc(S(=O)(=O)N2CCOCC2)cc1 | – | inactive
CCCc1c(C(=O)N/N=C/c2ccccc2OCc2ccc(F)cc2)nnn1-c1nonc1N | – | inconclusive: 29.1 µM [activator, single point]
COCCCC1CCN(C(=O)C2CCC(=O)N(CCc3cccc(F)c3)C2)CC1 (centres undefined) | – | inactive
COC(=O)C1C(=O)C2=C(CC1C)NC(C)=C(C(=O)OCc1ccc(OC)cc1)C2c1ccc(C)o1 (centres undefined) | – | inconclusive: 29.1 µM [inhibitor, single point]
COc1ccc(-c2cc(C(F)(F)F)nc(NCc3cccnc3)n2)cc1 | – | inconclusive: 20.6 µM [inhibitor, partial curve, poor fit]
Cc1ccc(C)c(S(=O)(=O)Nc2ccccc2C(=O)Nc2ccc(S(=O)(=O)Nc3ncccn3)cc2)c1 | – | inactive
Cc1cc(C(=O)N2CCN(Cc3ccccc3)CC2)ccc1[N+](=O)[O-] | – | inactive
O=C(NCCN1CCN(C(=O)c2ccc(F)cc2)CC1)c1ccc(F)cc1 | – | inactive
CCOP(=O)(OCC)C(Nc1ccc(C)cc1)c1ccco1 (centres undefined) | – | inconclusive: 3.26 µM [inhibitor, partial curve, poor fit]
CCN(Cc1ccccc1)S(=O)(=O)c1ccc(C(=O)N(CCCN(C)C)c2nc3c(F)cccc3s2)cc1 | – | inactive
NS(=O)(=O)c1ccc(CCNC(=O)CCC(=O)c2cccs2)cc1 | – | inactive
CCN(CC)c1ccc(C=C2C(=O)OC3(CCCC3)OC2=O)cc1 | – | inconclusive: 18.4 µM [activator, partial curve, poor fit]
O=C1Oc2ccccc2C2(O)C3CCCCCC3C12 (centres undefined) | – | inconclusive: 6.51 µM [inhibitor, single point]
CC(C)OCCCNc1ncnc2c1nc1n2CCCC1 | – | inconclusive: 18.3 µM [activator, partial curve, poor fit]
COc1ccc(CN=CC2=C(O)CC(C)(C)CC2=O)cc1 | – | inconclusive: 18.4 µM [activator, partial curve, poor fit]
CCOc1cc(C=O)ccc1OS(=O)(=O)c1ccc(NC(C)=O)cc1 | – | inactive
O=C(NCCOc1ccccc1)C1=CC=CN2CCS(=O)(=O)N=C12 | – | inconclusive: 18.3 µM [activator, partial curve, poor fit]

Entries of single compounds as entered above:
CCN(CC)c1ccc(NC(=O)C2CCCN(S(=O)(=O)c3cccnc3)C2)c(C)c1 (centres undefined) as listed: Potency: inconclusive: 18.4 µM [inhibitor, partial curve]
Cc1nc2ccc(NS(=O)(=O)c3ccc(F)cc3)cc2s1 as listed: Potency: inconclusive: 25.9 µM [inhibitor, single point]
CC1CCCC(NC(=O)c2cc(S(=O)(=O)N3CCCCC3)ccc2Cl)C1C (centres undefined) as listed: Potency: inactive
CCN(CC)S(=O)(=O)c1ccc2[nH]cc(C(=O)NCCc3ccccc3)c(=O)c2c1 as listed: Potency: active: 5.8 µM

(next part)

SMILES | activity change, negative = inhibition | Potency
Cc1nnc(NC(=O)c2ccc(S(=O)(=O)N3CC(C)CC(C)C3)cc2)o1 (centres undefined) | – | inconclusive: 20.6 µM [inhibitor, single point]
Cc1ccc2cc(C#N)c(N3CCCN(C(=O)C4CCCO4)CC3)nc2c1C (centres undefined) | – | inconclusive: 29.1 µM [inhibitor, single point]
CCOC(=O)c1sc(NC(=O)CCc2ccc(OC)cc2)nc1C | – | inconclusive: 7.3 µM [activator, partial curve, poor fit]
N#Cc1ccsc1NC(=O)CCc1ccccc1 | – | inconclusive: 20.6 µM [activator, partial curve]
CCN(CC)S(=O)(=O)c1cccc(C(=O)Nc2cc3oc4ccccc4c3cc2OC)c1 | – | inconclusive: 5.17 µM [inhibitor, full curve, poor fit]
CCNc1nc(NC(C)C)nc(NS(=O)(=O)c2ccc(Cl)cc2)n1 | – | inactive
COc1ccc(CCN=C(N)NS(=O)(=O)c2cc(F)ccc2OC)cc1 | – | inactive
CC1(C)CC(NC(=O)C2CCN(S(=O)(=O)c3ccccc3C(F)(F)F)CC2)CC(C)(C)N1 | – | inactive
Cn1c(NC(=O)/C=C/c2ccc(Cl)c(Cl)c2)cc(=O)n(C)c1=O | – | inconclusive: 18.4 µM [activator, partial curve]
O=c1c2ccccc2cnn1Cc1n[nH]c(=S)n1-c1ccc(Cl)cc1 | – | inactive
COc1ccccc1N1CCN(C(=O)CSc2nc3ccccc3nc2N2CCCCC2)CC1 | – | active: 16.4 µM
O=C(CCCNS(=O)(=O)c1cccs1)N1CCN(c2cccc(Cl)c2)CC1 | – | active: 23.1 µM
CCOc1ccc(N2CC(C(=O)N/N=C/c3sccc3C)CC2=O)cc1 (centres undefined) | – | inconclusive: 6.51 µM [inhibitor, single point]
COC(=O)C1=C(C)N(c2ccc(C)c(C)c2)/C(=C/c2cccs2)C1=O | – | inactive
NS(=O)(=O)c1ccc(CCNc2ncnc3c2c(-c2ccccc2)cn3-c2ccc(F)cc2)cc1 | – | active: 16.4 µM
COc1ccc(Cc2nc3ccc(C(=O)N4CCC[C@H]4CO)cc3o2)cc1 | – | inactive
COc1cc(-c2nnc(-c3ccc(S(=O)(=O)c4ccccc4)cc3)o2)cc(OC)c1OC | – | inconclusive: 10 µM [inhibitor, partial curve, poor fit]
COc1ccccc1/C=N/NC(=O)COCC(=O)N/N=C/c1ccccc1OC | – | inactive
O=C(Oc1ccccc1N1C(=O)C2CCCCC2C1=O)c1ccccc1 (centres undefined) | – | inactive
CCc1c(C)nc(SCC(=O)N2CCCCC2CC)[nH]c1=O (centres undefined) | – | inconclusive: 20.6 µM [activator, partial curve]
O=C(CCN1C(=O)/C(=C/c2ccc3c(c2)OCO3)SC1=S)Nc1ccc(C(=O)O)cc1 | – | inactive
COc1ccc(S(=O)(=O)N2CCN(CC(=O)NCCc3cccs3)CC2)cc1 | – | inactive
O=C(O)c1ccc2nc(-c3ccccc3)c(-c3ccccc3)nc2c1 | – | inconclusive: 20.6 µM [activator, partial curve]
Cc1ccc2cccc(Oc3ccc([N+](=O)[O-])cc3[N+](=O)[O-])c2n1 | – | inactive
